## Primary screen of a compound library

Protein sequences, listed by entry. Tags and fused reporters are not part of them. Residues count along the entry.
UniProt Q4DA54, 1-478: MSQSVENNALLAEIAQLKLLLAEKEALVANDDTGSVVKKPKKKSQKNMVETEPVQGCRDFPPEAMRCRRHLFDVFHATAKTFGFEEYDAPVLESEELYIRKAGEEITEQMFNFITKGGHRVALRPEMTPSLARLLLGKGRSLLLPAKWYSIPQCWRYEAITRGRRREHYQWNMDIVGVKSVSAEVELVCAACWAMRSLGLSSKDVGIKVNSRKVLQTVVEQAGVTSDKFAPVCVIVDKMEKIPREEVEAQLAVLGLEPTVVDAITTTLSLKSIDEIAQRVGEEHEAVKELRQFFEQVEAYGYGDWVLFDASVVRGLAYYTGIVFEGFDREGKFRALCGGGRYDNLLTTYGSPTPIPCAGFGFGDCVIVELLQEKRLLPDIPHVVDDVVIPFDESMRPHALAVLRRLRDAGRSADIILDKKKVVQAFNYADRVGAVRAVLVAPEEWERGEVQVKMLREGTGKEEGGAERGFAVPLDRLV
UniProt A4I591, 1-473: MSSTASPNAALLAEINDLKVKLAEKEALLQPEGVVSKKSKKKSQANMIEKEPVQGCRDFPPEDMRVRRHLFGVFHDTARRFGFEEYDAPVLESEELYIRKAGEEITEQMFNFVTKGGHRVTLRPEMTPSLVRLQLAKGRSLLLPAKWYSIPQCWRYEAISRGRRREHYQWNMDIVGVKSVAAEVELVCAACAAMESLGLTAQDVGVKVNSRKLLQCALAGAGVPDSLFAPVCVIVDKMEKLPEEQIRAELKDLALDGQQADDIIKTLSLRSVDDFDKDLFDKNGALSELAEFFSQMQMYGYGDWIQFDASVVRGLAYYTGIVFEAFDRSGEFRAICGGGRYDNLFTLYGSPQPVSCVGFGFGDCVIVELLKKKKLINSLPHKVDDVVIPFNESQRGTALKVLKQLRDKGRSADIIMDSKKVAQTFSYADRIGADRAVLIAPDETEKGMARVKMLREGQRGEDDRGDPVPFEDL
UniProt Q8IDJ8, 1-583: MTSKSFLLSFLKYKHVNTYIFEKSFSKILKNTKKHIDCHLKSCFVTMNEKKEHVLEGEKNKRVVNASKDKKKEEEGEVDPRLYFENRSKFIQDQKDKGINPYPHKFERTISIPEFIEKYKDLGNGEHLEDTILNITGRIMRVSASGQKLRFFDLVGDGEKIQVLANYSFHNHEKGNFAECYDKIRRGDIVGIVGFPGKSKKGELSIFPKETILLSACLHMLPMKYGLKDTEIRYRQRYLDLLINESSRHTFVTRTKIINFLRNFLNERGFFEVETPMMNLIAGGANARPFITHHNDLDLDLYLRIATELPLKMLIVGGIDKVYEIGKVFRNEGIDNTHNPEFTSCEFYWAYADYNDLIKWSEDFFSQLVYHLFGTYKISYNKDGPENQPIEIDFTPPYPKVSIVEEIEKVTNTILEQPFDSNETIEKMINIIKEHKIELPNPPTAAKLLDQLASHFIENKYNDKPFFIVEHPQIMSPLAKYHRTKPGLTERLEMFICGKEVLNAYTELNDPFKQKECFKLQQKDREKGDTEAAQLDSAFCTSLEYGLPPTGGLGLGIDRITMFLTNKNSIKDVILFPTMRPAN
UniProt P9WNZ1, whole entry: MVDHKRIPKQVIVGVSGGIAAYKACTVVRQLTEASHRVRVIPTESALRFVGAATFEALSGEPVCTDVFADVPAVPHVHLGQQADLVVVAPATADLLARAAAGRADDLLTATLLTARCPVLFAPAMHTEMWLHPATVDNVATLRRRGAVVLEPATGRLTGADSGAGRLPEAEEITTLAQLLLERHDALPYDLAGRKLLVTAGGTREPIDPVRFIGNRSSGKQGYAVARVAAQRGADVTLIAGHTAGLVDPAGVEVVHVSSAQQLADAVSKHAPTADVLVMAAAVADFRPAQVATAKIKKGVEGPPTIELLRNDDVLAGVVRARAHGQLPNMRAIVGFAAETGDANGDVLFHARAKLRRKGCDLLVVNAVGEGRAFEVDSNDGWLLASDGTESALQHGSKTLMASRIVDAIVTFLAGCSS

Data taken from ChEMBL document CHEMBL3988442, “University of Dundee, Small-Polar-MMV Screening Library” (2021).

A: 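Histidine-tRNA ligase, Trypanosoma cruzi CL Brener (UniProt Q4DA54). Enzyme assay of histidyl-tRNA synthetase; the read-out is not stated. Compounds at 30 µM. Higher reads as stronger inhibition (inferred: compounds with an IC50 in retests scored well above the rest). Of about 69,000 compounds tested this way, about 31 (0.045%) reached 50% or more in at least one test.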
B: 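Histidine-tRNA ligase, Leishmania infantum (UniProt A4I591). Enzyme assay of histidyl-tRNA synthetase; the read-out is not stated. Tested at 30 µM. The record gives no direction; compounds that gave an IC50 in retests scored well above the rest, so higher reads as stronger inhibition. The assay is labelled LdHisRS but filed under L. infantum. Of about 69,000 compounds tested this way, about 410 (0.6%) reached 50% or more in at least one test.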
C: 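Assay of Toxoplasma gondii numbers, read through their beta-galactosidase reporter with a colour substrate. Tested at 10 µM. The record gives no direction; the compounds picked for IC50 retests had high values, so higher reads as fewer parasites. Of about 67,000 compounds tested this way, about 260 (0.38%) reached 50% or more in at least one test.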
D: 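Enzyme assay of the cytosolic lysyl-tRNA synthetase in 384-well plates, read by luminescence. Target: Lysine-tRNA ligase, Plasmodium falciparum 3D7 (UniProt Q8IDJ8). Tested at 30 µM. Higher reads as stronger inhibition, judged from the few compounds that gave an IC50. Size under these conditions: about 69,000 compounds, about 49 of them at 50% or above in at least one test.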
E: 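Coenzyme A biosynthesis protein CoaBC, Mycobacterium tuberculosis (UniProt P9WNZ1). Enzyme assay of CoaBC with a phosphate dye (Biomol Green) read at 650 nm. Tested at 30 µM. Direction is inferred from only a few compounds that gave an IC50; most scored high, so higher reads as stronger inhibition. Most strong results did not repeat in a second test. Size under these conditions: about 67,000 compounds, about 40 of them at 50% or above in at least one test.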

Each number is a percent effect as filed.
The record does not define 0% and 100%; most values in the screen are far below 50% and negative numbers occur (in some assays of this library far below -100).
This is an unselected part of the compounds tested.
A dash means the value is not listed here; it may have been measured.

| SMILES | A | B | C | D | E |
|---|---|---|---|---|---|
| `Cc1cc(C)n(C2CCCN(C(=O)c3ccnc(N(C)C)c3)C2)n1` (centres undefined) | 4.082 | 1.613 | -23.44 | 0.9459 | -1.818 |
| `Cc1nc2c(c(NCC(O)c3ccccc3Cl)n1)CCNCC2` (centres undefined) | 8.287 | 9.859 | 7.031 | 2.752 | -29.29 |
| `Fc1ccc(CCN2CCC(c3nnc(-c4cccnc4)o3)CC2)cc1` | 2.703 | 16.67 | 1.858 | -3.72 | 7.222 |
| `CC(C)c1cc(=O)[nH]c(C(C)(C)N)n1.Cl` | - | - | 21.75 | - | - |
| `CC(C)=CCN1CCOC(Cn2nc(C)cc2C)C1` (centres undefined) | 2.662 | 23.2 | 97.95 | 1.734 | 2.394 |
| `N#Cc1cc(Cl)ccc1N1CCOC(C(N)=O)C1` (centres undefined) | 0.9852 | 23.29 | -7.332 | 3.177 | 9.295 |
| `Cc1ccc(CN2C[C@H](OCC3CCN(C)CC3)[C@H]3COC[C@H]32)o1` | 7.263 | 15.38 | - | 2.807 | 1.333 |
| `Cl.c1cc(CNCc2ccc3c(c2)CCO3)cc(N2CCOCC2)n1` | - | - | 1.967 | - | - |
| `Cc1nc(-c2ccncc2)ncc1C(C)NC(=O)CN1CCCCC1` (centres undefined) | -4 | 4.918 | -9.654 | 4.234 | 11.04 |
| `CC(C)c1noc(C2CCN(C(=O)C3CCCO3)CC2)n1` (centres undefined) | 6.736 | 12.9 | -15.9 | 6.257 | 5.275 |
| `COCCN1CCc2onc(C(c3ccccc3)c3ccccc3)c2C1` | 9.091 | 13.09 | 2.31 | 6.184 | -0.8696 |
| `CCOc1cccc(CNc2cncc(-n3cccn3)n2)c1` | 8.152 | 16 | 5.266 | 5.057 | 2.479 |
| `Cc1cc(C(=O)N2CCCN(Cc3cnn(C(C)C)c3)CC2)no1` | 9.278 | 11.29 | -8.655 | 2.821 | 3.912 |
| `O=C(O)C(c1ccc2c(c1)OCO2)N1CCCCCC1` (centres undefined) | 2.235 | -27.08 | 1.269 | 7.652 | 1.028 |
| `Cn1nc2c(cc1=O)CN(CC(=O)Nc1ccc(Cl)cn1)CC2` | 5.691 | 102.9 | -0.6397 | 9.182 | 8.439 |
| `Cc1nc(C2CCCN2C(=O)CCCOc2cccc(F)c2)no1` (centres undefined) | -1.734 | 1.333 | 3.821 | 5.844 | 0.4132 |
| `CC(C)c1nn(C)c(N(C)C)c1CNC1CCN(CC2CC2)CC1` | 5.882 | 3.968 | 4.965 | -0.914 | -0.2457 |
| `Nc1cc(-c2cc(C(=O)O)ccc2Cl)c2cc[nH]c2n1` | 13.29 | 36.17 | -9.079 | 1.555 | 12.66 |
| `CC[C@@H]1N(Cc2ccsc2)CCC[C@]12CCC(=O)N2CCOC` | 0.7519 | 24.39 | - | 1.774 | 2.177 |
| `CC(NC(=O)C1(NC(=O)c2ccc3[nH]ncc3c2)CCCC1)C1CC1` (centres undefined) | 11.11 | 10.96 | -13.24 | 4.071 | 4.339 |
| `CNC(=O)COc1ccc(CNCc2c(C)nn(C)c2N(C)C)cc1` | 3.955 | 10.34 | 2.193 | 3.213 | 1.567 |
| `Cc1cn(CC(=O)NC2CCN(C(C)C)CC2)c2ccccc12` | 7.407 | 15.15 | -1.321 | 2.433 | 0.1972 |
| `COCCn1cc(NC(=O)NCC2CCN(c3ccccc3)C2)cn1` (centres undefined) | 4.124 | 11.43 | -46.82 | 8.925 | 12.97 |
| `CCC(CC)C(=O)N1CCC(c2nn(CCN)c3nccnc23)C1` (centres undefined) | 8.989 | 14 | 9.321 | 3.081 | -1.115 |
| `CC(=O)Nc1ccc(CNCC(O)c2ccccc2)cc1` (centres undefined) | 11.67 | 11.61 | 4.651 | 4.986 | -0.4132 |
| `Cc1cc(C)cc(CN2CCN(C(=O)C3CCC3)[C@@H]3CS(=O)(=O)C[C@@H]32)c1` | 2.97 | -28.77 | - | 4.269 | 2.773 |
| `CNC(=O)COc1cccc(CNC(=O)c2c(C)noc2C)c1` | -0.9804 | 11.2 | 7.961 | 9.341 | -4.878 |
| `Cc1ccccc1C(C(=O)N(C)CCc1cnn(C)c1)N(C)C` (centres undefined) | 5.319 | 10.45 | -2.875 | 4.877 | -14.46 |
| `COCCN1CCCC(Cc2ccc(N3CCOCC3)nn2)C1` (centres undefined) | 4.478 | 26.32 | -4.169 | 2.972 | -1.703 |
| `Cl.Cl.O=C([C@H]1CCCN1)N1CC2(CCNCC2)c2cc(Cl)ccc21` | - | - | -1.829 | - | - |
| `O=C(O)C(F)(F)F.[H][C@@]12CCN(Cc3ccoc3)C[C@@]1([H])O[C@H](C(=O)N1CCCC1)C2` | - | - | -7.19 | - | - |
| `Cn1cnnc1CNC(=O)Nc1ccc(OC2CCC2)c(F)c1` | 2.128 | 25 | -12.26 | -2.036 | 18 |
| `CN(Cc1ccc(F)cc1)CC1(O)CCN(C(=O)c2ccccc2)C1` (centres undefined) | 4.865 | 8.333 | 0.5766 | -2.274 | 6.667 |
| `CCn1nc(C)cc1NC(=O)CCn1nc(C)c2ccccc21` | 3.125 | 13.58 | -17.76 | 4.696 | 0.7653 |
| `O=C(O)C(F)(F)F.[H][C@@]12CCN(Cc3ccc(OC)cc3)C[C@]1([H])[C@@H](CNC(=O)N(C)C)OC2` | - | - | -6.52 | - | - |
| `O=C(Nc1ccc(CCN2CCOCC2)cc1)C1CC1` | 7.289 | 11.01 | -22.54 | -0.4643 | 5.106 |
| `COCc1noc(Cc2cc(Cl)c3c(c2)OCCCO3)n1` | -1.22 | 13.25 | -1.684 | 1.73 | 4.177 |
| `COc1cccc(CN(C)C(=O)CN2CC(n3nc(C)cc3C)C2)c1` | 2.174 | 62.86 | 2.665 | 4.817 | -0.6748 |
| `O=C(Cc1ccsc1)NC1CCc2c(ccc(=O)n2CC2CC2)C1` (centres undefined) | 6.952 | 0.8547 | -8.482 | -3.336 | -2.5 |
| `O=C(Nc1ccccc1)C1CN(C(=O)c2cccs2)CC12CCOCC2` (centres undefined) | 5.473 | 8.333 | 7.759 | 1.74 | 3.226 |
| `O=C(O)C(F)(F)F.O=C(O)C(F)(F)F.O=C(O)C(F)(F)F.[H][C@@]12C[C@H](C(=O)NCCN(C)C)N(C(C)C)[C@]1([H])CN(c1ncccn1)C2` | - | - | 15.48 | - | - |
| `CC(C)n1ncc2c1NC(=O)CC21C(=O)Nc2cc(Cl)cc(Cl)c21` (centres undefined) | -0.5848 | 15.79 | -2.875 | 5.261 | 1.768 |
| `Cc1nc(C)n(CC2CCCCN2c2ccnc(-c3ccccc3)n2)n1` (centres undefined) | 7.368 | 21.92 | -6.586 | -2.277 | -3.586 |
| `CCN1c2ccc(-c3cncn3CCCn3ccnc3C)cc2CC1C.Cl` (centres undefined) | - | - | -7.994 | - | - |
| `Cc1nc(C)n(CC2CCCN(Cc3cccc(F)c3F)C2)n1` (centres undefined) | 4.07 | 12.5 | -6.509 | -1.6 | 14.69 |
| `CS(=O)(=O)NCC(=O)NC(Cc1ccccc1)C1CCCC1` (centres undefined) | -4.762 | 0 | -1.789 | 3.52 | 1.033 |
| `CCc1ccccc1OCCN1CCC(NS(C)(=O)=O)CC1` | 4.545 | 17.74 | 0.9135 | 5.395 | 2.781 |
| `[H][C@]12CCN(S(=O)(=O)c3ccc(C)cc3)[C@@]1([H])CC[C@@H](COC)O2` | - | - | -1.438 | - | - |
| `O=C(O)C(F)(F)F.[H][C@]12CCC[C@@]1(COCC(=O)N(C)C)CNC2` | - | - | -2.5 | - | - |
| `COc1ccc(Cl)cc1CC(=O)N1CCN(CC(C)(C)O)CC1` | 0.2849 | 13.68 | 1.77 | 0.2144 | -4.558 |
| `N#Cc1ccc(F)c(CN2CCCCC2Cn2cccn2)c1` (centres undefined) | 7.018 | 20 | 8.839 | 1.239 | 4.592 |
| `[H][C@]12CN(Cc3ncccn3)CC[C@@]1(O)CCN(C(=O)C1CCC1)C2` | - | - | -6.065 | - | - |
| `COc1cc2nc(C)n(CC(=O)NCCCN(C)C)c(=O)c2cc1OC` | 3.825 | 15.53 | -2.75 | 5.353 | -7.672 |
| `CC(O)CN1CCN(C(=O)CCOc2ccccc2F)CC1` (centres undefined) | 0.4975 | 8.434 | -18.01 | 0.122 | 7.905 |
| `CN(C)c1ncccc1CNS(=O)(=O)c1cc(F)ccc1F` | -5.143 | 0 | -0.5934 | 0.2628 | 2.628 |
| `Cc1noc(C)c1C1CCCN1C(=O)CN1CC2(CCNCC2)OC1=O` (centres undefined) | 4.167 | 1.923 | 0.4616 | -3.353 | -12.58 |
| `CSCCc1c(-c2ccccc2)ncn1[C@H]1C[C@@H](C(=O)O)N(C)C1` | 2.674 | 9.948 | -0.9363 | -1.097 | 8.696 |
| `NC(=O)CN(Cc1ccc(Br)cc1)C(=O)c1cnccn1` | 6.077 | 9.375 | -0.6732 | 3.685 | 9.821 |
| `NC(=O)C1CN(c2ccc3c(Cl)ccnc3c2F)CCO1` (centres undefined) | 14.47 | 25.83 | 7.534 | 3.305 | - |
| `O=C(O)C1(n2ccc(-c3ccco3)n2)CCN(Cc2ccccn2)CC1` | 7.035 | 20.21 | 2.091 | 2.696 | 10.18 |
| `Cc1ccc(CN(Cc2c[nH]cn2)C2CC(C)(C)NC(C)(C)C2)o1.O=C(O)CC(O)(CC(=O)O)C(=O)O` | - | - | -2.627 | - | - |

Repeated from the top, 8 entries:

Result for Cc1cc(C)n(C2CCCN(C(=O)c3ccnc(N(C)C)c3)C2)n1 (centres undefined) was A: 4.082%; B: 1.613%; C: -23.44%; D: 0.9459%; E: -1.818%.
Result for Cc1nc2c(c(NCC(O)c3ccccc3Cl)n1)CCNCC2 (centres undefined) was A: 8.287%; B: 9.859%; C: 7.031%; D: 2.752%; E: -29.29%.
Result for Fc1ccc(CCN2CCC(c3nnc(-c4cccnc4)o3)CC2)cc1 was A: 2.703%; B: 16.67%; C: 1.858%; D: -3.72%; E: 7.222%.
Result for CC(C)c1cc(=O)[nH]c(C(C)(C)N)n1.Cl was C: 21.75%.
Result for CC(C)=CCN1CCOC(Cn2nc(C)cc2C)C1 (centres undefined) was A: 2.662%; B: 23.2%; C: 97.95%; D: 1.734%; E: 2.394%.
Result for N#Cc1cc(Cl)ccc1N1CCOC(C(N)=O)C1 (centres undefined) was A: 0.9852%; B: 23.29%; C: -7.332%; D: 3.177%; E: 9.295%.
Result for Cc1ccc(CN2C[C@H](OCC3CCN(C)CC3)[C@H]3COC[C@H]32)o1 was A: 7.263%; B: 15.38%; D: 2.807%; E: 1.333%.
Result for Cl.c1cc(CNCc2ccc3c(c2)CCO3)cc(N2CCOCC2)n1 was C: 1.967%.